Values from PubChem BioAssay AID1259254 (NCATS, 2017).

Assay: 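Finding genes that stop cells copying their DNA twice in one cycle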 (primary screen)
Cell system: human HCT116 colorectal cancer cells
Reagents: single siRNA against human genes
Time to read-out: 3 days
Read-out: 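Imaged Hoechst DNA stain sorts each cell into a cycle phase by DNA amount; per plate, G2 fraction set to 0% for non-targeting and 100% for GMNN siRNA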
Scale: G2 robust z-score and G2 cells, % of GMNN control: higher = more G2 cells, more excess DNA replication; raw share of cells in G2: higher = larger share of cells with G2 DNA content
Rule for the call: 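An siRNA counts as active if its G2 robust z-score lies at least 5 MADs above the screen median; here such calls match roughly 38% of GMNN control or more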
Shown is an unselected part of about 59,000 reagents. Of all reagents, about 1,550 (2.6%) are marked active. 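G2 share is only a proxy for re-replication; each gene was hit by three separate siRNAs, and active genes were retested.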 Raw values vary from plate to plate and are shown uncorrected. Entries without a mark were called inactive. The numbers tell different reagents against one gene apart. Not stated in the record: the amount of reagent.

gene,reagent no.,G2 robust z-score,"G2 cells, % of GMNN control",raw share of cells in G2 (%)
ARR3,1,-0.689,-1.88,3.29
ARR3,2,-0.687,-1.86,4.41
ARR3,3,-0.717,-2.08,4.01
CYP4A22,1,0.821,8.74,7.48
CYP4A22,2,-0.351,0.498,6.12
CYP4A22,3,0.826,8.78,8.39
SAMD8,1,0.0349,3.21,4.91
SAMD8,2,-0.00363,2.94,3.82
SAMD8,3,-0.636,-1.51,2.54
SGSM3,1,-0.727,-2.15,2.58
SGSM3,2,1.41,12.9,8.77
SGSM3,3,2.01,17.1,11
SH3BP1,1,0.674,7.71,9.66
SH3BP1,2,2.25,18.8,10.4
SH3BP1,3,0.197,4.35,5.41
CCR10,1,0.0162,3.08,5.59
CCR10,2,-0.841,-2.95,2.36
CCR10,3,4.09,31.8,17.2
RPL26P32,1,3.47,27.4,13.8
RPL26P32,2,4.61,35.4,17.6
RPL26P32,3,2.2,18.5,12.5
OGDH,1,-1.22,-5.63,3.07
OGDH,2,-0.796,-2.63,3.68
OGDH,3,-0.825,-2.84,2.23

The list goes on, starting with the last 5 of the part before.
gene,reagent no.,G2 robust z-score,"G2 cells, % of GMNN control",raw share of cells in G2 (%)
RPL26P32,2,4.61,35.4,17.6
RPL26P32,3,2.2,18.5,12.5
OGDH,1,-1.22,-5.63,3.07
OGDH,2,-0.796,-2.63,3.68
OGDH,3,-0.825,-2.84,2.23
CD63,1,1.18,11.2,10.6
CD63,2,1,10,7.75
CD63,3,-0.787,-2.57,2.52
NEFM,1,-0.944,-3.68,3.41
NEFM,2,-0.528,-0.746,3.93
NEFM,3,-1.27,-5.94,1.21
OR9Q2,1,0.272,4.88,5.35
OR9Q2,2,2.39,19.8,9.9
OR9Q2,3,-0.109,2.2,3.9
MANSC1,1,-1.39,-6.82,1.16
MANSC1,2,-0.48,-0.411,4.1
MANSC1,3,-0.342,0.558,3.38
SUCLA2,1,-0.487,-0.462,4.33
SUCLA2,2,-1.59,-8.23,2.37
SUCLA2,3,-0.615,-1.36,4.22
C3orf22,1,-0.534,-0.787,2.79
C3orf22,2,-0.192,1.61,4.37
C3orf22,3,0.166,4.13,4.19
TGM3,1,-0.886,-3.27,3.43
TGM3,2,-0.679,-1.81,3.36
TGM3,3,0.69,7.82,8.31
CNOT12,1,-0.09,2.33,5.07
CNOT12,2,-0.588,-1.17,2.63
CNOT12,3,0.575,7.02,5.15
